Counter-ions that a name gives are not always drawn. Some of the results follow. Hit calls seldom repeat between salt and free forms of one compound.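 Kinases were expressed as nanoluciferase fusions in K562 cells and luminescence was read every 4 h between 2 and 18 h as percent of control, DMSO set to 100% and a positive control to 0%. A time point counts as decreased when the signal drops significantly (2 sigma). The hit call is the authors' own, does not follow from the count of time points alone, and its rule is not shown.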
target: PLK1 (UniProt P53350); assay: kinase-Nluc reporter destabilization hit call (1 = scored as downregulated) (binary); higher = compound decreases kinase abundance; settings: K562; 2-18 h

By UniProt entry, the sequences of proteins in these tests, tags left out.
UniProt P53350, whole entry: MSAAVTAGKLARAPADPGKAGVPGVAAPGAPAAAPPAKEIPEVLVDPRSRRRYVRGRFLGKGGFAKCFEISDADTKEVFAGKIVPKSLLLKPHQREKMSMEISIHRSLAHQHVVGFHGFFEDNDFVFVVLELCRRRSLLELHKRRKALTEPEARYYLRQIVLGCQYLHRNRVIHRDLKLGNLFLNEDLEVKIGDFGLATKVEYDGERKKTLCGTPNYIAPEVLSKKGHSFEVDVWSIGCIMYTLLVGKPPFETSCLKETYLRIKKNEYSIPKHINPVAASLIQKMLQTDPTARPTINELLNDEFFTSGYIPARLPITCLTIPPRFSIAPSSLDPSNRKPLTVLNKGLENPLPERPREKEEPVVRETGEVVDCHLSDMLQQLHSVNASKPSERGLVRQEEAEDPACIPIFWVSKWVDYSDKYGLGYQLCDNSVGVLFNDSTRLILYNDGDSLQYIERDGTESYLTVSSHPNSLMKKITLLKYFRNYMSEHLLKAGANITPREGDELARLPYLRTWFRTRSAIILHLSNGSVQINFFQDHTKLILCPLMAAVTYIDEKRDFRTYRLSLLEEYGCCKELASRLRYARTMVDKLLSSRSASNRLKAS

SMILES	kinase-Nluc reporter destabilization hit call
CCS(=O)(=O)c1ncc(Cl)c(C(=O)N(Cc2ccc(Cl)cc2)Cc2ccco2)n1 (2.5 µM)	inactive: 0
Nc1cc(C(F)(F)F)c(-c2cc(N3CCOCC3)nc(N3CCOCC3)n2)cn1 [Buparlisib (Hydrochloride)] (2.5 µM)	inactive: 0
COc1cc(Nc2ncc(F)c(Nc3ccc4c(n3)N(COP(=O)(O)O)C(=O)C(C)(C)O4)n2)cc(OC)c1OC [Fostamatinib Disodium] (10 µM)	inactive: 0
CC(C)(O)CNc1ncc(-c2ccnc(Nc3ccnc(Cl)c3)n2)c(CC2CC2)n1 (2.5 µM)	inactive: 0
O=Nc1c(-c2c(O)[nH]c3ccc(I)cc23)[nH]c2ccccc12 [5-Iodo-indirubin-3'-monoxime] (10 µM)	inactive: 0
Cc1cc(Nc2ncnc3ccc(NC4=NC(C)(C)CO4)cc23)ccc1Oc1ccn2ncnc2c1 [Tucatinib] (2.5 µM)	inactive: 0
CCS(=O)(=O)Nc1ccc2[nH]c(O)c(C(=Nc3ccc(CN4CCCCC4)cc3)c3ccccc3)c2c1 [Hesperadin] (2.5 µM)	inactive: 0
COc1cc2c(cc1OC)CN(S(=O)(=O)c1ccc(OC)c(N3CCN(C(=O)c4ccc(F)cc4C(F)(F)F)CC3)c1)CC2 (10 µM)	inactive: 0
O=C([O-])c1cc2ccccc2c(Cc2c(O)c(C(=O)[O-])cc3ccccc23)c1O.[Na+].[Na+] [Pamoic acid (disodium)] (10 µM)	inactive: 0
Cn1cc(-c2ccc3nnc(Sc4ccc5ncccc5c4)n3n2)cn1 (10 µM)	inactive: 0
Cc1cc(O)c2c(c1)C(=O)c1cc(O)cc(O)c1C2=O [Emodin] (10 µM)	inactive: 0
COc1cc2c(N3CCN(C(=O)Nc4ccc(OC(C)C)cc4)CC3)ncnc2cc1OCCCN1CCCCC1 [Tandutinib (hydrochloride)] (10 µM)	inactive: 0
CCC(C)N1c2ccccc2C(=O)N(C)c2cnc(Nc3ccc(C(=O)N4CCC(N5CCN(C)CC5)CC4)cc3OC)nc21 (stereo unspecified) (2.5 µM)	inactive: 0
COc1cc(Nc2ncc(F)c(Nc3ccc4c(n3)NC(=O)C(C)(C)O4)n2)cc(OC)c1OC (10 µM)	inactive: 0
NS(=O)(=O)c1ccc(-n2nc(C(F)(F)F)cc2-c2ccc(Cl)cc2)cc1 (10 µM)	inactive: 0
Cc1c(NC(=O)c2cccn(-c3ccc(F)cc3)c2=O)ccc(Oc2ccnc(NC(=O)C3CC3)c2)c1C (2 µM)	inactive: 0

SMILES	kinase-Nluc reporter destabilization hit call
c1ccc(-c2[nH]ncc2-c2ccnc3ccccc23)nc1 (10 µM)	inactive: 0
CN(C)CCCOc1ccc(-c2ccc3ncc4c(c3c2)n(C2CCOCC2)c(=O)n4C)cn1 (2 µM)	inactive: 0
COc1cc(Nc2ncc(F)c(Nc3ccc4c(n3)NC(=O)C(C)(C)O4)n2)cc(OC)c1OC [R406 (free base)] (10 µM)	inactive: 0
OCCn1cc(-c2ccc3c(c2)CC/C3=N\O)c(-c2ccncc2)n1 (10 µM)	inactive: 0
C[C@@H]1CCN(C(=O)CC#N)C[C@@H]1N(C)c1ncnc2[nH]ccc12 [Tofacitinib] (10 µM)	inactive: 0
C[C@@H]1CCN(C(=O)CC#N)C[C@@H]1N(C)c1ncnc2[nH]ccc12 [Tofacitinib (citrate)] (10 µM)	inactive: 0
FC(F)(c1ccc2ncccc2c1)c1nnc2ccc(-c3ccncc3)nn12 (10 µM)	inactive: 0
O=C1NC(=O)/C(=C\c2cccc(C(F)(F)F)c2)S1 (2.5 µM)	inactive: 0
N#CCC1CCN(c2nc(Nc3ccc(N4CCC(O)CC4)cc3)c3c(=O)[nH]ncc3n2)CC1 [Gusacitinib] (10 µM)	inactive: 0
Nc1ncnc2c1c(-c1cccc(OCc3ccccc3)c1)cn2C1CC(CN2CCC2)C1 (stereo unspecified) (2.5 µM)	inactive: 0
CCNc1nc(Nc2cc(F)c(C(=O)N3CCOCC3)cc2OC)ncc1C(F)(F)F [GNE-7915 (tosylate)] (10 µM)	inactive: 0
Cn1cnc2c(F)c(Nc3ccc(Br)cc3Cl)c(C(=O)NOCCO)cc21 [Selumetinib] (10 µM)	inactive: 0
CCN1CCN(Cc2ccc(-c3cc4c(N[C@H](C)c5ccccc5)ncnc4[nH]3)cc2)CC1 (2.5 µM)	inactive: 0
O=C(N/N=C/c1coc2ccccc2c1=O)c1cccnc1 (10 µM)	inactive: 0
O=Nc1c(-c2c(O)[nH]c3ccc(F)cc23)[nH]c2ccccc12 [5'-Fluoroindirubinoxime] (10 µM)	inactive: 0

Some of the entries above, set out differently.
SMILES,kinase-Nluc reporter destabilization hit call
Nc1cc(C(F)(F)F)c(-c2cc(N3CCOCC3)nc(N3CCOCC3)n2)cn1 [Buparlisib (Hydrochloride)] (2.5 µM),inactive: 0
COc1cc(Nc2ncc(F)c(Nc3ccc4c(n3)N(COP(=O)(O)O)C(=O)C(C)(C)O4)n2)cc(OC)c1OC [Fostamatinib Disodium] (10 µM),inactive: 0
CC(C)(O)CNc1ncc(-c2ccnc(Nc3ccnc(Cl)c3)n2)c(CC2CC2)n1 (2.5 µM),inactive: 0
O=Nc1c(-c2c(O)[nH]c3ccc(I)cc23)[nH]c2ccccc12 [5-Iodo-indirubin-3'-monoxime] (10 µM),inactive: 0
Cc1cc(Nc2ncnc3ccc(NC4=NC(C)(C)CO4)cc23)ccc1Oc1ccn2ncnc2c1 [Tucatinib] (2.5 µM),inactive: 0
CCS(=O)(=O)Nc1ccc2[nH]c(O)c(C(=Nc3ccc(CN4CCCCC4)cc3)c3ccccc3)c2c1 [Hesperadin] (2.5 µM),inactive: 0
COc1cc2c(cc1OC)CN(S(=O)(=O)c1ccc(OC)c(N3CCN(C(=O)c4ccc(F)cc4C(F)(F)F)CC3)c1)CC2 (10 µM),inactive: 0
O=C([O-])c1cc2ccccc2c(Cc2c(O)c(C(=O)[O-])cc3ccccc23)c1O.[Na+].[Na+] [Pamoic acid (disodium)] (10 µM),inactive: 0

— the supplement of paper PMC12823440, “Inhibitors supercharge kinase turnover through native proteolytic circuits” (Nature, 2025)
